From PMC4728322
Results are given in words; binding and its absence hold for the method and conditions named. Binding seen in cells or lysates may run through a third protein. Some entries that bind do so weakly or less than the wild type.

By UniProt entry, the sequences of proteins in these tests, tags left out.
UniProt Q9WTX6: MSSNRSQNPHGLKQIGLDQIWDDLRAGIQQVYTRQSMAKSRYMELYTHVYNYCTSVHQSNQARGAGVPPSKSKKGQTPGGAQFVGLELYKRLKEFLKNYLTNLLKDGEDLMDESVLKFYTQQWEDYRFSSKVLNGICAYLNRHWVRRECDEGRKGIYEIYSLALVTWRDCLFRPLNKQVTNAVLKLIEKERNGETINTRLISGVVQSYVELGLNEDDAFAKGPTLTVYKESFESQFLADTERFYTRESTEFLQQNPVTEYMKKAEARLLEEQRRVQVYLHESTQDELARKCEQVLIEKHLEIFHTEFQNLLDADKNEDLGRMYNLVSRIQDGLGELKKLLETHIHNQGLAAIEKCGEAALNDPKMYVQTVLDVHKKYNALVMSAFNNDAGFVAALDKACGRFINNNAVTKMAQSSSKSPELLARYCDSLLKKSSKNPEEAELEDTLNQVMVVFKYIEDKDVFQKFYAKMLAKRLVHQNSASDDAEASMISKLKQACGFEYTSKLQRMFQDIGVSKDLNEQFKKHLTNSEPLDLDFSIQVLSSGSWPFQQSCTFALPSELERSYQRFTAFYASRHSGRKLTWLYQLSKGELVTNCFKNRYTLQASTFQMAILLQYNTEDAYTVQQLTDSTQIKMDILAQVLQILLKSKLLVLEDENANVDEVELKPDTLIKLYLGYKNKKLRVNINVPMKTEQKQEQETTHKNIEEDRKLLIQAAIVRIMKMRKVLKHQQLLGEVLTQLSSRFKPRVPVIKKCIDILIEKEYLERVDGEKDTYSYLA

Legend:
[1] = target: T1, FBXO11, large isoform (Fbxo11-001, 930 aa, 103 kDa) (mouse (endogenous in E15.5 embryonic lung)) (UniProt Q7TPD1); test: co-IP; total protein from E15.5 wild-type mouse lungs precipitated with anti-FBXO11 178A (detects both the large and small isoforms); 12.5 µg antibody for 2.5 mg protein extract, Dynabeads protein G; Western blot
T1 sequence: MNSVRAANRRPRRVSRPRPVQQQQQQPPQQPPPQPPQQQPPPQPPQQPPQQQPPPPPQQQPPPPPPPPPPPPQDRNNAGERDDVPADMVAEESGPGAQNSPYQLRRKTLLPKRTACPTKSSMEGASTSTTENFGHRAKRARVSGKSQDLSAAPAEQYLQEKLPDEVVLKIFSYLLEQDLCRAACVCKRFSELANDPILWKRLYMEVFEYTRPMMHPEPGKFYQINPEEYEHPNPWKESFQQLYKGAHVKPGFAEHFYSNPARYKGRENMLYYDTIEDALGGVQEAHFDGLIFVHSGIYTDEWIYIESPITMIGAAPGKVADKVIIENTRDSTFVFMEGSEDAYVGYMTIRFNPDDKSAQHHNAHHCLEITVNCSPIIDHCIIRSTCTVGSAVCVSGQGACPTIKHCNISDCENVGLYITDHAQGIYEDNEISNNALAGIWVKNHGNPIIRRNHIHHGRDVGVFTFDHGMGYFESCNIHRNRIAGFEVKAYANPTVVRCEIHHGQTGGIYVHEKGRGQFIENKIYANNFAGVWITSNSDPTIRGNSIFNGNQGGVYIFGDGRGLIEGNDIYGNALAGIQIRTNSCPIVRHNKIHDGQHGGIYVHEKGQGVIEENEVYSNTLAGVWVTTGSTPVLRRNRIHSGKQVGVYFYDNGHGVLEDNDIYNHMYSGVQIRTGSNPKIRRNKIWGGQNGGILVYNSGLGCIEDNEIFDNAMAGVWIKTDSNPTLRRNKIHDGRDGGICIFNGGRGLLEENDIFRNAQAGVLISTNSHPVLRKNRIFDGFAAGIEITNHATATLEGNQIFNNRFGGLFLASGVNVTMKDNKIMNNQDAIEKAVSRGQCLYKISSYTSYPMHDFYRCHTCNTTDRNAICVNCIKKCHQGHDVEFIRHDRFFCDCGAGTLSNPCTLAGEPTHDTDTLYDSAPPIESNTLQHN

[2] = target: T1, FBXO11, large isoform (Fbxo11-001, 930 aa, 103 kDa) (mouse (endogenous in E15.5 embryonic lung)); test: co-IP; total protein from E15.5 wild-type mouse lungs precipitated with anti-FBXO11 177A (recognises only the large isoform); 12.5 µg antibody for 2.5 mg protein extract, Dynabeads protein G; Western blot

Question: How did the binding [1] turn out when CUL1 (from UniProt Q9WTX6 1-776) was run?
Answer: The binding was “binds”.

Question: What about the binding [2] of the same substance?
Answer: The binding was “binds”.
